Data as given in PubChem BioAssay AID686943 (Drosophila RNAi Screening Center, 2013)
Purpose: 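Knockdowns that increase or decrease active ERK after insulin receptor stimulation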 (primary screen). Cells: Drosophila S2R+ haemocyte-like cells expressing YFP-tagged ERK (Rolled). Reagents: long dsRNA against Drosophila genes. Treatment: insulin stimulation versus unstimulated cells; dose and duration not given. Measured: 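Antibody staining for doubly phosphorylated ERK divided by ERK-YFP signal, as plate z-scores, in insulin-treated and untreated cells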. Scale: replicate 1, z-score of dpERK with insulin and replicate 2, z-score of dpERK with insulin: higher = more active ERK per ERK-YFP after insulin; replicate 1, z-score of dpERK under basal conditions: higher = more basal active ERK per ERK-YFP; replicate 1, z-score of ERK-YFP with insulin: higher = more YFP-tagged ERK signal.
The deposit covers about 23,000 reagents; below is a random part of those that have a named target and a result. 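Extra replicates exist only for a retested subset of genes; insulin dose and duration not given; both raised and lowered dpERK matter.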 Not given: the amount of reagent, the time to read-out.

target,amplicon,"replicate 1, z-score of dpERK with insulin","replicate 2, z-score of dpERK with insulin","replicate 1, z-score of dpERK under basal conditions","replicate 1, z-score of ERK-YFP with insulin"
CG31249,DRSC16248,0.8,0.44,1.78,0.39
Pbp95 (PSEA-binding protein 95kD),DRSC15448,-0.73,-0.03,0.02,0.33
Ubr3 (Ubr3 ubiquitin ligase),DRSC17987,1.07,1.3,-1.93,-0.23
Ubr3 (Ubr3 ubiquitin ligase),DRSC17997,0.04,0.12,-0.71,-0.31
CG8668,DRSC03101,0.31,0.77,-0.65,-0.92
yellow-h,DRSC17141,-0.2,0.41,-0.31,0.29
robl22E,DRSC00289,-0.13,0.98,-0.11,0.82
Ahcy (Adenosylhomocysteinase),DRSC19329,0,0.29,-0.35,-0.9
DnaJ-1 (DnaJ-like-1),DRSC11145,-2.08,-0.49,1.47,-0.97
TrissinR (Trissin receptor),DRSC02334,0.16,-0.44,-1.58,1.66
TrissinR (Trissin receptor),DRSC02335,-3.17,-3.32,-0.72,0.01
TrissinR (Trissin receptor),DRSC02336,0.49,0.18,0.18,-0.62
Trmt61 (tRNA methyltransferase 61),DRSC14888,-0.93,0.05,-0.17,0.37
CG3123,DRSC00570,0.49,-0.03,-0.4,-0.69
CG11168,DRSC14292,0.13,0.8,0.05,0.32

No new results follow: an excerpt of the list.
target,amplicon,"replicate 1, z-score of dpERK with insulin","replicate 2, z-score of dpERK with insulin","replicate 1, z-score of dpERK under basal conditions","replicate 1, z-score of ERK-YFP with insulin"
TrissinR (Trissin receptor),DRSC02334,0.16,-0.44,-1.58,1.66
TrissinR (Trissin receptor),DRSC02335,-3.17,-3.32,-0.72,0.01

Further reagents:
target,amplicon,"replicate 1, z-score of dpERK with insulin","replicate 2, z-score of dpERK with insulin","replicate 1, z-score of dpERK under basal conditions","replicate 1, z-score of ERK-YFP with insulin"
unc-45 (uncoordinated 45),DRSC15449,0.43,0.35,1.5,0.3
sunz (sungrazer),DRSC12559,-0.8,0.38,1.86,0.08
CRAT (Carnitine O-Acetyl-Transferase),DRSC12523,0.17,0.5,0,0.15
Eig71Ef (Ecdysone-induced gene 71Ef),DRSC11153,0.4,-0.44,-0.12,-0.14
AIMP2 (aaRS-interacting multifunctional protein 2),DRSC09877,-0.17,0.71,0.6,0.65
Prosbeta1 (Proteasome beta1 subunit),DRSC07159,-1.55,-2.7,-1.62,1.69
CG7409,DRSC10842,1.19,0.46,0.75,0.57
CG31058 (retired record),DRSC15840,0,-2.45,-1.87,0
